According to doi:10.1101/226183:
These are yes or no findings as the source states them, for the method shown. Binding seen in cells or lysates may run through a third protein. Binding calls can cover weak binding; strength is not graded here.

Sequences of proteins named here, by UniProt entry; tags and fusion partners are left off. A change or cut given only in a name is not applied to a line headed by its entry.
UniProt Q9M9N3: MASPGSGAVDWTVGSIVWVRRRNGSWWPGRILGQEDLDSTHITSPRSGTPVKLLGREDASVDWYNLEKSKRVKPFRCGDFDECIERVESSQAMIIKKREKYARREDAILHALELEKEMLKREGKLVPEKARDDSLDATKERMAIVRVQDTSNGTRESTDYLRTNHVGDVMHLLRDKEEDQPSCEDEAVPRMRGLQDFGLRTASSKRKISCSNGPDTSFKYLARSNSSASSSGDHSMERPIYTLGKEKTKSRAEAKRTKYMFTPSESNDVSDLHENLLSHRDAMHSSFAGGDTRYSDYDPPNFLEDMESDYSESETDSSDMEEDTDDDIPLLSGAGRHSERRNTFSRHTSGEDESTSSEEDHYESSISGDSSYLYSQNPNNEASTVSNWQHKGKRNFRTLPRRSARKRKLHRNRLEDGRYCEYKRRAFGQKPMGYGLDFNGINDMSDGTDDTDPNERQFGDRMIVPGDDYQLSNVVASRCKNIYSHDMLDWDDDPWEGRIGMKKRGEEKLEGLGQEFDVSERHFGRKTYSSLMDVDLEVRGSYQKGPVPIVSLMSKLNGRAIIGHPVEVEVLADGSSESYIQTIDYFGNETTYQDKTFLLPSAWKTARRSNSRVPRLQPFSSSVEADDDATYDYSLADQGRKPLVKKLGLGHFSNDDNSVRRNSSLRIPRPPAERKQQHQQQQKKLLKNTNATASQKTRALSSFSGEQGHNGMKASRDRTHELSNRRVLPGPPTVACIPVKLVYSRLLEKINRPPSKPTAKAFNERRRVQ

Target: PWO1-GFP (PWO1pro::PWO1-GFP) (Arabidopsis thaliana) (UniProt Q9M9N3)
Assay: co-IP

binding: binds
B1: mCHERRY-CLF (i35Spro::mCHERRY-CLF) (protein, UniProt P93831 1-902)
chain: MASEASPSSSATRSEPPKDSPAEERGPASKEVSEVIESLKKKLAADRCISIKKRIDENKKNLFAITQSFMRSSMERGGSCKDGSDLLVKRQRDSPGMKSGIDESNNNRYVEDGPASSGMVQGSSVPVKISLRPIKMPDIKRLSPYTTWVFLDRNQRMTEDQSVVGRRRIYYDQTGGEALICSDSEEEAIDDEEEKRDFLEPEDYIIRMTLEQLGLSDSVLAELASFLSRSTSEIKARHGVLMKEKEVSESGDNQAESSLLNKDMEGALDSFDNLFCRRCLVFDCRLHGCSQDLIFPAEKPAPWCPPVDENLTCGANCYKTLLKSGRFPGYGTIEGKTGTSSDGAGTKTTPTKFSSKLNGRKPKTFPSESASSNEKCALETSDSENGLQQDTNSDKVSSSPKVKGSGRRVGRKRNKNRVAERVPRKTQKRQKKTEASDSDSIASGSCSPSDAKHKDNEDATSSSQKHVKSGNSGKSRKNGTPAEVSNNSVKDDVPVCQSNEVASELDAPGSDESLRKEEFMGETVSRGRLATNKLWRPLEKSLFDKGVEIFGMNSCLIARNLLSGFKSCWEVFQYMTCSENKASFFGGDGLNPDGSSKFDINGNMVNNQVRRRSRFLRRRGKVRRLKYTWKSAAYHSIRKRITEKKDQPCRQFNPCNCKIACGKECPCLLNGTCCEKYCGCPKSCKNRFRGCHCAKSQCRSRQCPCFAADRECDPDVCRNCWVIGGDGSLGVPSQRGDNYECRNMKLLLKQQQRVLLGISDVSGWGAFLKNSVSKHEYLGEYTGELISHKEADKRGKIYDRENCSFLFNLNDQFVLDAYRKGDKLKFANHSPEPNCYAKVIMVAGDHRVGIFAKERILAGEELFYDYRYEPDRAPAWAKKPEAPGSKKDENVTPSVGRPKKLA
